In the test the target is T1, RING Finger Protein 173 (UniProt Q86UD3).
T1 sequence: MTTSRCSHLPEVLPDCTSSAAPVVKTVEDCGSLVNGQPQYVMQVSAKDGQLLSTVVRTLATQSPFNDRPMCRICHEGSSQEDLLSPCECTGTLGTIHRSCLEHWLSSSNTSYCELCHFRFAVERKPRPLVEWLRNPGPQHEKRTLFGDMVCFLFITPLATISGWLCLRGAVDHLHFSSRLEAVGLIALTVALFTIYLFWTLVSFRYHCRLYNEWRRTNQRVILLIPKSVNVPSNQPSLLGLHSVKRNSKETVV
The experiment in a line: co-IP; cell lysate incubated overnight with 5 ug primary antibody (FLAG; GRB2 or IgG), protein A agarose beads 3 h, three washes, Western blot. (In general: A western blot detects proteins with antibodies after separation by electrophoresis.)

The chains behind the UniProt entries cited, without tags or fusion partners.
UniProt P62993: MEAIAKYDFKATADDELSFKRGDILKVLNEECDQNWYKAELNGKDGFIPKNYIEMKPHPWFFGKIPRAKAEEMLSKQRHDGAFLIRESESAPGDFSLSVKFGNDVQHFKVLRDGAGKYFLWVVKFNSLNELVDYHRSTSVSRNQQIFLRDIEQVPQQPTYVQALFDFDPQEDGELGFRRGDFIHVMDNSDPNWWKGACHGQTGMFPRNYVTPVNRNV

Data on one substance can be found in publication PMC10464048.

These are yes or no findings as the source states them, for the method shown. Binding seen in cells or lysates may run through a third protein. Some entries that bind do so weakly or less than the wild type.

For “Growth Factor Receptor Bound Protein 2 (from UniProt P62993 1-217)”, the binding entry is listed as “binds”.
